# Test results published in doi:10.1101/2020.12.25.417865.
# The chains behind the UniProt entries cited, without tags or fusion partners. Residues count along the entry.
# UniProt P38932: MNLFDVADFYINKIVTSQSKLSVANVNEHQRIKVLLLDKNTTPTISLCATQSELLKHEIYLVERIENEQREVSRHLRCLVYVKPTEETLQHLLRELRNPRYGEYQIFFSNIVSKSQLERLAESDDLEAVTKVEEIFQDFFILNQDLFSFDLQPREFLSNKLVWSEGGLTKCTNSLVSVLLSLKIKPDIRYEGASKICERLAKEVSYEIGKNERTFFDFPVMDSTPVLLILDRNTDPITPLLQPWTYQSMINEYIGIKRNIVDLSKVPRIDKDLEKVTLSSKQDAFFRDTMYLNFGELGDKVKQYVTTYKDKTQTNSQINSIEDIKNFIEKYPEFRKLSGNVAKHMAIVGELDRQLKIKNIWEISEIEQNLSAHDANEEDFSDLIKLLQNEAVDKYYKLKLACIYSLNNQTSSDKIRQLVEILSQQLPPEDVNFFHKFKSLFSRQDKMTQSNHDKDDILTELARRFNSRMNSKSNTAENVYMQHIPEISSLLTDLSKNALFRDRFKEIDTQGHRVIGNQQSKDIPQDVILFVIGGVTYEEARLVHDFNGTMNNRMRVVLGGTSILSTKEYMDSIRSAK
# UniProt Q04338: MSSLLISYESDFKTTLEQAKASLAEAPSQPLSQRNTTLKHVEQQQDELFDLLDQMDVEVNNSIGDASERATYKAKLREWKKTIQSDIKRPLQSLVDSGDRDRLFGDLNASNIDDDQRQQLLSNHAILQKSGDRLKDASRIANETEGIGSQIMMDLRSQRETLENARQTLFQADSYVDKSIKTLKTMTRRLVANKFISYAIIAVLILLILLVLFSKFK
# UniProt P32319, residues 22-1579: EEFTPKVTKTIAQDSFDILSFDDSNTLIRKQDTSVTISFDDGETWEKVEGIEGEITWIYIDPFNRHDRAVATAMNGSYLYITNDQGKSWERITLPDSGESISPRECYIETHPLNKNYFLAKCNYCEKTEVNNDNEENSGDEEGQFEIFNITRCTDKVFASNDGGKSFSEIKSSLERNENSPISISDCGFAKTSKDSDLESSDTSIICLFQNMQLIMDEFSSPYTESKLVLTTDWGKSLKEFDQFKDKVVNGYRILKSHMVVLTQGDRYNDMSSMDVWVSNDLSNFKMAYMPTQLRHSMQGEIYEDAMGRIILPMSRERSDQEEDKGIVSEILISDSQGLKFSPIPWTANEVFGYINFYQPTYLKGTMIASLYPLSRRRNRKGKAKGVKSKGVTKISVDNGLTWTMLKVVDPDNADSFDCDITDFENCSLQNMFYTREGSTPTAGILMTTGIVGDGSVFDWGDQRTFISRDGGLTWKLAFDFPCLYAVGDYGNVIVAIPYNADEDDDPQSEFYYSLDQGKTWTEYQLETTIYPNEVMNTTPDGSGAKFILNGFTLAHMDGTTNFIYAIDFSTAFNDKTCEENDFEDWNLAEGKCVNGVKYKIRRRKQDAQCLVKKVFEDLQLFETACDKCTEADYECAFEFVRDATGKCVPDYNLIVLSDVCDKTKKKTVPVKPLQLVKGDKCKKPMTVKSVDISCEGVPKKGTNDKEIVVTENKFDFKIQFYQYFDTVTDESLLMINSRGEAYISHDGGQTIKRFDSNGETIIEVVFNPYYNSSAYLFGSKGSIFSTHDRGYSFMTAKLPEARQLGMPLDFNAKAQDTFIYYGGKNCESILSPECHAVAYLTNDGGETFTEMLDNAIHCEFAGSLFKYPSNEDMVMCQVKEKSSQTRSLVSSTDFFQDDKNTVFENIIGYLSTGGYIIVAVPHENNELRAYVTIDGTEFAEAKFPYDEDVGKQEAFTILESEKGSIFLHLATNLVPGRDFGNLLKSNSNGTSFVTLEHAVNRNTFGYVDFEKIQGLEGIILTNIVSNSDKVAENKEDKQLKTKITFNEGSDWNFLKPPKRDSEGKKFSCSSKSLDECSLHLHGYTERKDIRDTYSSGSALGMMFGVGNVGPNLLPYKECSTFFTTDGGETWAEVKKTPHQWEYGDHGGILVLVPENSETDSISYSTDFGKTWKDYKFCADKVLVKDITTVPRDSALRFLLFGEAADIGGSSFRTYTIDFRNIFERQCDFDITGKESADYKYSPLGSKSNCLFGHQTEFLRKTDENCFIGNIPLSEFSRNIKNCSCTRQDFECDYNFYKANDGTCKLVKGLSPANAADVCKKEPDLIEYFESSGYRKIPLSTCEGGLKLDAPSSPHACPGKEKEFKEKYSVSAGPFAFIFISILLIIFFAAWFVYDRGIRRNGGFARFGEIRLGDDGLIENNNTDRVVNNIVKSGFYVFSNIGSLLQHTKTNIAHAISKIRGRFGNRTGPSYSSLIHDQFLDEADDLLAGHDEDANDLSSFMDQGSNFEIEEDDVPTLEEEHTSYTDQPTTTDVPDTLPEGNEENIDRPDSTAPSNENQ
# These are yes or no findings as the source states them, for the method shown. Binding seen in cells or lysates may run through a third protein. Here binding means that the protein was enriched with, or labelled near, the bait; the list need not be complete. Where a sequence is shown, tags or fusion partners need not be part of it.
# T1: Drs2-GFP (S. cerevisiae) (UniProt P39524)
# T1 sequence: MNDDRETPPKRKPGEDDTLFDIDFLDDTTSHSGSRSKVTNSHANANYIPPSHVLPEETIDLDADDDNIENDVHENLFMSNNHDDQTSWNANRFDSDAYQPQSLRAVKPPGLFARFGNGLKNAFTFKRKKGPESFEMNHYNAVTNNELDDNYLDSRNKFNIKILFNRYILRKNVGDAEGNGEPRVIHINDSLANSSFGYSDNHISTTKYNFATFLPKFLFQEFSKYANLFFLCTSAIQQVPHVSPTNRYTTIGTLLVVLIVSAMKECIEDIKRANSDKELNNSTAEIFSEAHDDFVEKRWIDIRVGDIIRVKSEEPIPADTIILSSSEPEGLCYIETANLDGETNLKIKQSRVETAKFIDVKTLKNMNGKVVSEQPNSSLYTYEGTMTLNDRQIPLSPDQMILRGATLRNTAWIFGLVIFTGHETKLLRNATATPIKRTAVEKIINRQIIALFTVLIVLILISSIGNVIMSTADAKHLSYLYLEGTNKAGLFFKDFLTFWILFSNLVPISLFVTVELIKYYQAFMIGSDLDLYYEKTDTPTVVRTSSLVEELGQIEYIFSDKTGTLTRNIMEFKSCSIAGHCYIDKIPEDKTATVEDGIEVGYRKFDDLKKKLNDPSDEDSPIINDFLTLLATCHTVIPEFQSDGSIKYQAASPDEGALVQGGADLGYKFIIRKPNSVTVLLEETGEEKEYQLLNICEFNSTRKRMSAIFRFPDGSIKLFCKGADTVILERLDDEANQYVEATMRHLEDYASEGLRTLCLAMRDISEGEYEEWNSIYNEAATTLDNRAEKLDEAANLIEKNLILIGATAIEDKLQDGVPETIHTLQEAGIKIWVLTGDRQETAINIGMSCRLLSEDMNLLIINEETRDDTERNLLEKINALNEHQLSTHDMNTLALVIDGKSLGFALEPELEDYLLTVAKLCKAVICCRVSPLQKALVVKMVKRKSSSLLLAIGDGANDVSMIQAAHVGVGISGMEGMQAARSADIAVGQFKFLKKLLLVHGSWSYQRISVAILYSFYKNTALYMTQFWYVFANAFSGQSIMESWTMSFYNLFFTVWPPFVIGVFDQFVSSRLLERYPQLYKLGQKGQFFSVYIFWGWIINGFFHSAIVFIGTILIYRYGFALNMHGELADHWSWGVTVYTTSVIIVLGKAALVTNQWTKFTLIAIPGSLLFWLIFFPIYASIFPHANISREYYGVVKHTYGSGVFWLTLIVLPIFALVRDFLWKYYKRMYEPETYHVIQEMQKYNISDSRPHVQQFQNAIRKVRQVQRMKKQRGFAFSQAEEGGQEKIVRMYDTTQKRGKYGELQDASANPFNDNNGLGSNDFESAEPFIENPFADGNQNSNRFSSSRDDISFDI
# B1: Rcy1 (protein, UniProt P39531 1-840)
# chain: MDDLLKVPEIVTNIASYLSTVDYLSFQQVNKRVYAIINGKNDSKYWSLKLTRMGLQQVHSNEEEEITLLDENDNQNSLRIFEIYKSFTAQNSKKIFVKFYRCYNSYARKLYNNNLANFFPTSYSNDPLKQTRILNFIKKYNFSNKNDIETFTRIETNFNILREIFINSVLKESELNYQSNNLAAVARFMKILLISNEESNAIEFFKSKADLPPSLTVLPSNDELFWAEQPREEDSGGSTVIFNSKNLDTFLNQLRDFLNEKIKLADILFKDEFPVILQFIESFIQDILLDILNNILLSYSEFLKENGKDSKANYECVPELYFTFIKKFDTELNDSVNAGANFRKVVRDLLNLYLEPFVVNYMNQTTRVFESLINSQLANYDTQVQDKQREQNAKIYNTLKDQTDASSASNNELPNDLSIITETSKTVPEADSKPSTIHQSVHSTDISNDKLDFLSSFTKIFKFSNNENQRLKQQLQLAYNLNLISNNLQNIKSLISLDLCYKILQETSEKTDQIYKFHTIESLLPLIKLRCQEIFKILITQLNKNHVKPAFEKAILLLQKYNPNEIEQIEIKFNSLSPANTQVEPLVQFTELINIGDIILQMISIFYKNELIPKKIIDKNKDFLNDVIQLKKNFETSIDDFVAEGLNIGINKLMDEISFVFKTLQLPDDYNPPPPSRNSPIRDIKPTKCAIRVVELLSNHCFLLTGATDKGTIDVYQQEIGERFFNEIVKHLKKCFISTEGAIWLICDLNYFYDFIANKLKQKNVVPYFVGLKSIGQLYIISGKDSKELGKLISDLGKFNGIFTQEEIYEFVQRRSDWVRVRKDVEKVMYGLGIRDCCIM
# B2: Vps17 (protein, UniProt P32913 1-551)
# chain: MTSAVPYDPYDDLDNNPFAEPQEEDSEPAATTTDGSSSMSEERVGTEQTAASVQDNGTANNIQNGLGEEGNATRSKTSNEHNENQQPSQPSERVILPERSDEKKKYTLLAKVTGLERFGSATGKKENPTIIFDCSTNLPTFRKQQYKNVKKSYEEFHQLFKYLNVAIQESFVPTLPSAYTTFGINSEEDRMKVTRNFQLWFNRLSQDPLIIRNEEVAFFIESDFNTYTPINKSKSLASGLKRKTLKQLAPPYDEITELAEFRPLVKSIYVVSQSLQEKLLRVSRNRKMMVQEENAFGQDFVNLDEHNKLYRRYGKILTAVGDIDSIIATMDMATLYDGLEWIVRDAYAVKEALTNRHFIMRNLVQAQQNSKAKQEQARRFRSRRDINPMKIDEALRQLKAAAKNEQVLTLKLQRITSNMIIERKQWISWYEEWIRSSIKEFTLRKIEYERKKLTLLERVRSDIRKADENGGLSRLGRHAVSNNNSDTSQTLKGDSWTGESNRKSQIPINKIAHTEFDDELFTEDDGYNSQDSDTTSLNARHAASLLGMSTK
# B3: Cdc50 (protein, UniProt P25656 1-391)
# chain: MVSLFKRGKAPPLTKEGPTSKKPPNTAFRQQRLKAWQPILSPQSVLPLLIFVACIFTPIGIGLIVSATKVQDLTIDYSHCDTKASTTAFEDIPKKYIKYHFKSKVENKPQWRLTENENGEQSCELQFEIPNDIKKSIFIYYKITNFYQNHRRYVQSFDTKQILGEPIKKDDLDTSCSPIRSREDKIIYPCGLIANSMFNDTFSQVLSGIDDTEDYNLTNKHISWSIDRHRFKTTKYNASDIVPPPNWMKKYPDGYTDENLPDIHTWEEFQVWMRTAAFPKFYKLTLKNESASLPKGKYQMNIELNYPISLFGGTKSFVLTTNGAIGGRNMSLGVLYLIVAGLCALFGIIFLVKLIFQPRAMGDHTYLNFDDEENEDYEDVHAENTTLREIL
# B4: Akr1 (protein, UniProt P39010 1-764)
# chain: MVNELENVPRASTLTNEEQTVDPSNNDSQEDISLGDSNEITSLASLKAIRSGNEEESGNEQVNHNDEAEEDPLLTRYHTACQRGDLATVKEMIHGKLLEVNNDGDSTEHITGLHWASINNRLSVVDFLVSQGADVNARAGALHATPLHWAARYGYVYIVDFLLKHGADPTMTDDQGFNLLHLSVNSSNIMLVLYVLFNVVSKGLLDIDCRDPKGRTSLLWAAYQGDSLTVAELLKFGASIKIADTEGFTPLHWGTVKGQPHVLKYLIQDGADFFQKTDTGKDCFAIAQEMNTVYSLREALTHSGFDYHGYPIKKWFKKSQHAKLVTFITPFLFLGIAFALFSHINPLFVIIVLFLLAIATNKGLNKFVLPSYGRMGVHNVTLLRSPLLSGVFFGTLLWVTIVWFFKVMPRTFSDEQYTNILMLVILVSVFYLFGQLVIMDPGCLPEETDHENVRQTISNLLEIGKFDTKNFCIETWIRKPLRSKFSPLNNAVVARFDHYCPWIFNDVGLKNHKAFIFFITLMESGIFTFLALCLEYFDELEDAHEDTSQKNGKCFILGASDLCSGLIYDRFVFLILLWALLQSIWVASLIFVQAFQICKGMTNTEFNVLMKESKSIGPDGLSFNENFNTTPEGFAPSIDPGEESNDTVLAPVPGSTIRKPRTCFGVCYAVTGMDQWLAVIKETIGIKDSTGHNVYSITSRIPTNYGWKRNVKDFWLTSDINAPLWRRILYPPSGSKALLNGIEVDYFKLYKLPNKDVEQGNDMV
# Target: T1, Drs2-GFP (S. cerevisiae)
# Experiment: cross-linking + affinity purification with mass spectrometry
row,binding,Molecule
1,binds,Vps45 (from UniProt P38932 1-577)
2,binds,Vti1 (from UniProt Q04338 1-217)
3,binds,Pep1 (from UniProt P32319 22-1579)

# Target: T1, Drs2-GFP (S. cerevisiae)
# Experiment: as above
# Remark: another data set of the same source
row,binding,Molecule
1,binds,B1
2,binds,B2
3,binds,B3
4,binds,B4
